The exact form of at least one protein or probe is not confirmed. Results from cells or extracts need not show a direct contact. Where a protein sequence is shown, tags need not be part of it.
System: T1, FXRα1 (Homo sapiens)
T1 sequence (looked up, limits assumed): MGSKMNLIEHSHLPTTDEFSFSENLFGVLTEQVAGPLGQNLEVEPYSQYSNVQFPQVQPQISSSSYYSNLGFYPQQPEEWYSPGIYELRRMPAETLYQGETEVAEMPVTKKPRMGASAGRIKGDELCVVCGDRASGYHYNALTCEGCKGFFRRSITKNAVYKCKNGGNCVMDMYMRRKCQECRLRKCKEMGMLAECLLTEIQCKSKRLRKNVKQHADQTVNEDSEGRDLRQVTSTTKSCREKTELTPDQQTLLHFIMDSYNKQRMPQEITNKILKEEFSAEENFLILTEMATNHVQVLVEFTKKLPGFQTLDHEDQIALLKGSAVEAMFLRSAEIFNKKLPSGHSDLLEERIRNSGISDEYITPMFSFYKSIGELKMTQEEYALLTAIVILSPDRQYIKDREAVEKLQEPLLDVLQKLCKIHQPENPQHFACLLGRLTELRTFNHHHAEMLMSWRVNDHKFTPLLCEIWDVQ
Test: EMSA
Details: 5 µg nuclear extract, 1 µg poly(dI-dC), EMSA buffer (composition not given), 30 min at 4 °C, 6% native PAGE in 0.5x TBE pH 8.3, protein in a lysate after overexpression, protein details: Flag and HA epitopes (pcDNA3.2), label: 32P

Q: Does “GATGGGCCAAGGTCAATGACCTCGGGG (double strand) [IR-1 consensus FXRE]” bind (HeLa nuclear extract, FXRα1 without co-transfected RXRα (endogenous RXR possible))?
A: binds

Q: Does “GATGGGCCAAGGTCAATGACCTCGGGG (double strand) [IR-1 consensus FXRE]” bind (HepG2 nuclear extract, complex enhanced with increasing FXRα1 plasmid over endogenous complex)?
A: binds
